Results deposited as PubChem BioAssay AID652272 (Drosophila RNAi Screening Center, 2013).
In all, the deposit lists about 21,000 reagents; shown is a random part of those with a known target gene and a result. In the full data, 503 (2.4%) are marked active. 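Raw plate light values, not normalised; calls rest on replicate z-scores that were not deposited; hits include reporter decreases as well as increases.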 Not given: the amount of reagent, the time to read-out.

- Screen: 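Finding fly genes that regulate Hedgehog signal transduction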 (primary screen)
- System: Drosophila clone 8 (Cl8) cells
- Reagent: long dsRNA against Drosophila genes
- Detection: 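Plate reader light from a firefly reporter under a ptc promoter fragment that responds to Hedgehog, with Renilla light as transfection reference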
- Scale: firefly Hh reporter signal: higher = more ptc reporter light; Renilla reference signal: higher = more Renilla control light
- Active means: 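Called a hit if the two-replicate mean z-score lies below -2 or above +3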
- Meaning of the calls: active = hit: reporter lowered or raised; inactive = not a hit

firefly Hh reporter signal, replicate 1	firefly Hh reporter signal, replicate 2	firefly Hh reporter signal, replicate 3	Renilla reference signal, replicate 1	Renilla reference signal, replicate 2	Call	target gene	amplicon
64448	2.22e5		2322	8279	inactive	CG15330	DRSC18014
1.47e5	81529		5232	3532	inactive	CG4452	DRSC10422
1.40e5	1.40e5		4994	4001	inactive	serp (serpentine)	DRSC11035
1.09e5	1.47e5		4083	3815	inactive	serp (serpentine)	DRSC11036
2.42e5			5650		inactive	Cep135 (Centrosomal protein 135kDa)	DRSC09345
1.34e5	69200		4873	2961	inactive	Cep135 (Centrosomal protein 135kDa)	DRSC10244
1.10e5	85985		4096	3047	inactive	CG6283	DRSC16009
60664	46184		2235	3085	inactive	CG12547	DRSC07759
73308	40691		2326	3176	inactive	Oseg2 (Outer segment 2)	DRSC08343
77985	52292		2199	5033	inactive	ppk18 (pickpocket 18)	DRSC02216
1.01e5	57146		2555	5203	inactive	ppk18 (pickpocket 18)	DRSC02217
1.24e5	80405		4595	2972	inactive	CG8229	DRSC07114
4.70e5	1.84e5		23084	3900	inactive	CG34347	DRSC14047
73664	50535		3568	550	inactive	CG34347	DRSC14305
98777	53192		3875	689	inactive	CG34347	DRSC15104
1.80e5	9268		866	866	active	CG34347	DRSC15105
1.32e5	90603		5658	2699	inactive	Dronc (Death regulator Nedd2-like caspase)	DRSC11231
39053	25114	41100	2924	2708	inactive	CR14117 (pseudo)	DRSC10121
63779	79863		2981	3002	inactive	PIG-U (Phosphatidylinositol glycan anchor biosynthesis class U)	DRSC02193
68987	82784		2327	2224	inactive	CG14370	DRSC14832
1.01e5	47517		2730	4499	inactive	Cyp303a1 (Cytochrome P450 303a1)	DRSC03300
1.13e5			1825	3361	inactive	Jon74E (Jonah 74E)	DRSC10617
2.23e5			5738		inactive	edin (elevated during infection)	DRSC09488
30017	42967	34336	5752	3248	inactive	Vps36 (Vacuolar protein sorting 36)	DRSC09785
1.18e5	43751		5040	1388	inactive	Ilp2 (Insulin-like peptide 2)	DRSC10968
1.57e5	5.52e5	90616	6016	33424	inactive	Vps24 (Vacuolar protein sorting 24)	DRSC12332
1.44e5	1.30e5		5405	3619	inactive	GstD4 (Glutathione S transferase D4)	DRSC16685
90464	54877		2278	5024	inactive	CG17350	DRSC02611
1.16e5	1.17e5		4545	3024	inactive	CG14086	DRSC10090
67739	89489		1250	2232	inactive	CG31269	DRSC15744
1.54e5	1.27e5		6327	4805	inactive	PPO1 (Prophenoloxidase 1)	DRSC05929
1974	2.29e5		474	4077	inactive	CG31088	DRSC13123
64161	2.41e5		12817	5373	inactive	CG31337	DRSC12981
81296	62297		1895	4635	inactive	Cyp317a1 (Cytochrome P450 317a1)	DRSC07366
1.18e5	1.15e5		2944	3091	inactive	Tcs4 (Threonyl-carbamoyl synthesis 4)	DRSC19587
59013	51395		4787	3889	active	CG6015	DRSC15948
77130	48179		2496	1737	inactive	CG8708	DRSC07240
93699	3.65e5		3733	11628	inactive	Tmf (TATA element modulatory factor)	DRSC18368
6.74e5	3.58e5		37014	7810	inactive	w (white)	DRSC17233
72592	1.36e5		2644	6202	inactive	w (white)	DRSC18850
1.79e5	66480		4480	6722	inactive	senju	DRSC02366
1.18e5	1.05e5		4848	4551	inactive	Pih1D1 (PIH1 domain containing 1)	DRSC02897
91475	68896		2274	5383	inactive	Cpr47Ef (Cuticular protein 47Ef)	DRSC06336
6.19e5	96860		32602	2761	inactive	CG31221	DRSC14335
5.56e5	91403		33488	2536	inactive	CG31221	DRSC16217
1.17e5	2.63e5		3148	9274	inactive	resilin	DRSC05627
1.55e5	72909		4144	3956	inactive	resilin	DRSC06595
2.79e5			6278		inactive	CR42548 (pseudo)	DRSC09514
82285	94058		1642	2800	inactive	CG1971	DRSC15406
71594	65328		1994	4034	inactive	CG15711	DRSC06582
88483	3.22e5		3203	10445	inactive	hop (hopscotch)	DRSC20340
96448	84058		4778	3696	inactive	asun (asunder)	DRSC16733
1.66e5	1.51e5		5895	4896	inactive	srl (spargel)	DRSC12340
6.71e5	1.44e5	1.24e5	6028	3883	inactive	CG32409	DRSC08780
69911	1.50e5		1401	5901	inactive	mxc (multi sex combs)	DRSC17819
63926	1.00e5		2624	4290	inactive	Oscillin	DRSC03001
50459	2.14e5		1010	7079	inactive	CG14634	DRSC17944

Ordered by “Renilla reference signal, replicate 1” (high to low): some entries from above.
firefly Hh reporter signal, replicate 1	firefly Hh reporter signal, replicate 2	firefly Hh reporter signal, replicate 3	Renilla reference signal, replicate 1	Renilla reference signal, replicate 2	Call	target gene	amplicon
4.70e5	1.84e5		23084	3900	inactive	CG34347	DRSC14047
1.32e5	90603		5658	2699	inactive	Dronc (Death regulator Nedd2-like caspase)	DRSC11231
1.24e5	80405		4595	2972	inactive	CG8229	DRSC07114
98777	53192		3875	689	inactive	CG34347	DRSC15104
73664	50535		3568	550	inactive	CG34347	DRSC14305
1.01e5	57146		2555	5203	inactive	ppk18 (pickpocket 18)	DRSC02217
77985	52292		2199	5033	inactive	ppk18 (pickpocket 18)	DRSC02216
1.80e5	9268		866	866	active	CG34347	DRSC15105
